Laboratory results taken from patent US9877918B2, “Long-lasting controlled-release liposome composition and method for producing same” (TERUMO KABUSHIKI KAISHA, priority 2011, dated 2018).
Where a name gives a salt, the structure may show the parent alone.

Assay: Pharmacokinetics of DNP liposome, concentration of donepezil hydrochloride in plasma after subcutaneous administration
Settings: rat, SC 5 mg/kg as donepezil hydrochloride

COc1cc2c(cc1OC)C(=O)C(CC1CCN(Cc3ccccc3)CC1)C2 (centres unmarked) [donepezil hydrochloride alone, Donepezil Hydrochloride]
time of maximum in-blood concentration after administration: 0.5 h
concentration of donepezil hydrochloride in blood after 48 hours (48 hours after administration): below the detection limit
